The list shows a part of the results.

The chains behind the UniProt entries cited, without tags or fusion partners.
UniProt Q0JBA9, entry or part of it: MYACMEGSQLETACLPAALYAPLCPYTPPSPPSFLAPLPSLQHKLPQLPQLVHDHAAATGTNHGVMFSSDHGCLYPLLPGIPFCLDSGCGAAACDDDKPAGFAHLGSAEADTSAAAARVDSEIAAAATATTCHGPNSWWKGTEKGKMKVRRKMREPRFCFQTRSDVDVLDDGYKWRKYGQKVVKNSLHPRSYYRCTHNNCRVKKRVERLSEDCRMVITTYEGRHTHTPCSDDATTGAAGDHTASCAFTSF

This test concerns the target OsWRKY34 (Oryza sativa, UniProt Q0JBA9 1-250). In words: protein-binding microarray (RPBM); PBS, 2% BSA, 51.3 ng/ul salmon testes DNA, 50 uM zinc acetate, 200 nM TF, 25 C, 1 h; high values mean tight binding. As to conditions: protein: recombinant; tags: N-terminal polyhistidine and DsRed monomer fusion (pET32a); label: CyDye5-dUTP incorporated in the synthesized complementary strand; 3' TTTTT single-stranded linker to array surface; dsDNA, one strand shown. In outline:
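Using Ni–NTA, transcription factors fused N-terminally to polyhistidine and DsRed were purified after expression in E. coli BL21-CodonPlus. These were incubated at 200 nM with a blocked, double-stranded custom Agilent array for 1 h at 25 °C in a buffer containing 50 µM zinc acetate, and the array was washed. The binding signal is per-feature fluorescence intensity (arbitrary units) on an Axon 4000B scanner.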
For the sequence “CCACGCCACGCGCCGCTCTCACTCGGTCACTCTCACTCTTCGGAGTCACCTAGTGCAG”, the binding signal is 9750 fluorescence intensity (a.u.).
For “GTTTTGTATGGTTCTCTGGATATATTACTGCCTGTAAATTCGGAGTCACCTAGTGCAG”, the binding signal is 8320 fluorescence intensity (a.u.).
Turning to “CCCTTCGCCGCATAACGAACATTGCACTTTCACATAAAAGCGGAGTCACCTAGTGCAG”, the binding signal was 8440 fluorescence intensity (a.u.).
Consider “AATAAGCTTTCACTTTCATCCCAGCACAATATGCATGCAACGGAGTCACCTAGTGCAG”, for which the binding signal was 8100 fluorescence intensity (a.u.).
As for “CGGTTGGACTAAGTCAACGTGCCGCCTTAGTAAAAATCGCCGGAGTCACCTAGTGCAG”, the binding signal was 8180 fluorescence intensity (a.u.).
The figure for “CCATTTTTCGTCGCTGGCTCGCTCGCTTTCTCCTCGCGCTCGGAGTCACCTAGTGCAG” is 11300 fluorescence intensity (a.u.).
Turning to “GTACATATAGCTACCCGAACCACCGCCGCCGCCGCCGCCACGGAGTCACCTAGTGCAG”, the binding signal is 9870 fluorescence intensity (a.u.).
Take “GGAAGGAGGGGAGGAGTAGTAGGAGGAGGAGGAGGAGATGCGGAGTCACCTAGTGCAG”: the binding signal is 12800 fluorescence intensity (a.u.).
On to “TACTATATAATTTTCTTTCATATGTTCTCTATAGTCTATACGGAGTCACCTAGTGCAG”, for which the binding signal was 9880 fluorescence intensity (a.u.).
Consider “AATCACTCGGATTAATCCCTACCGTCCATCCGCGCGCACGCGGAGTCACCTAGTGCAG”, for which the binding signal is 8200 fluorescence intensity (a.u.).
Take “GGCGGCGGCGGCGGCGGAGGAGGCGGCGGGTCTAGGGTTGCGGAGTCACCTAGTGCAG”: the binding signal was 9570 fluorescence intensity (a.u.).
Turning to “CTATGTGCCTACTTCCATTCTCCTTCGTCATATTACATAACGGAGTCACCTAGTGCAG”, the binding signal is 10800 fluorescence intensity (a.u.).
For the sequence “TCACCCACCTGTTGACTACCATCACCACTCCTCGTCTGGACGGAGTCACCTAGTGCAG”, the binding signal is 8590 fluorescence intensity (a.u.).
As to “CCGACGCCTACTACTTCGCCCACTAGCCACGCGTGCTGCCCGGAGTCACCTAGTGCAG”, the binding signal is 9050 fluorescence intensity (a.u.).
“ATGTCATTTTTTTTTCTTTTTGAAGAATTCTGCCTATATACGGAGTCACCTAGTGCAG”: the binding signal is 9050 fluorescence intensity (a.u.).
“TATAATGTCCCTTTTGCTTGCCTTTTTGTTTACAGCATTACGGAGTCACCTAGTGCAG”: the binding signal was 8280 fluorescence intensity (a.u.).
On to “TTGTGGTTTTCTTGAATTGTTAGGTTGGGTTGTGGTTATGCGGAGTCACCTAGTGCAG”, for which the binding signal is 9250 fluorescence intensity (a.u.).
For “TCGTCGTGTTCGTGTTTTTTTTCTTCCAATCTGCGCGCGTCGGAGTCACCTAGTGCAG”, the binding signal is 8990 fluorescence intensity (a.u.).
As to “CCGCGTCCGCGCCCGTCCCCACGCCACCAGGCGGTCTCCGCGGAGTCACCTAGTGCAG”, the binding signal is 8290 fluorescence intensity (a.u.).
Regarding “TATACTCCTTTATTATTTATCTGGGCCCACCTTACAACTCCGGAGTCACCTAGTGCAG”, the binding signal is 8880 fluorescence intensity (a.u.).
As for “ATAATCTCCACATGCATCGTCGCTGTATTTTTTGGTTTCACGGAGTCACCTAGTGCAG”, the binding signal was 8510 fluorescence intensity (a.u.).
With “GGGTCGATACGAATTGGGGATTCTGCAGTTGTTTCTGCTCCGGAGTCACCTAGTGCAG”, the binding signal was 11900 fluorescence intensity (a.u.).
As to “TAATTTCTCTCTTTTGATTCTATTATCATGCTCCGCACAACGGAGTCACCTAGTGCAG”, the binding signal was 8070 fluorescence intensity (a.u.).

(Values after PMC7819943, “Rice protein-binding microarrays: a tool to detect cis-acting elements near promoter regions in rice”.)
